# Measured values: PubChem BioAssay AID493014 (National Center for Advancing Translational Sciences (NCATS), 2011)
# The list shows a part of the results. The main result of the screen is listed elsewhere. These columns were measured beside it and carry no call. Most of these compounds were active or inconclusive in the main read-out, so they are no random draw. The note in brackets gives the kind of curve behind each potency; many fits are weak.
# Assay: qHTS Assay to Find Inhibitors of Chronic Active B-Cell Receptor Signaling
# Details: ABC-DLBCL IkBa-CBG/CBR reporter, luminescence ratio (green luciferase fused to IkBa over red control in TMD8 lymphoma cells), 4 h
# Summary of the method: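 Compounds up to 46 uM were incubated four hours with TMD8 cells whose green CBG68 luciferase is fused to IkappaBalpha; red CBR luminescence normalised the signal, and concentration-effect curves were fitted to fusion, red and ratio data.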
# [1] = measured here: CBR red luminescence, cell number
# [2] = measured here: IkBa-CBG green luminescence
smiles,measurement,setting,value
CCOC(=O)CSc1nc2cc3c(cc2cc1CC)OCCO3,AC50,[1],"3.66 µM [rising, partial curve, poor fit]"
O=C1/C(=C/c2ccco2)SC(=S)N1CCC(=O)N1CCCCC1CCO (configuration not stated),AC50,[2],"12.6 µM [rising, partial curve, poor fit]"
O=C(N/N=C/c1cccnc1)c1cc(Br)ccc1O,AC50,[1],"1.78 µM [falling, full curve]"
Cc1cc(Nc2ccccc2N2CCOCC2)n2ncnc2n1,AC50,[1],"25.1 µM [rising, single point]"
CN(c1nc2ccccc2[nH]c1=O)C1CCCCC1,AC50,[1],"0.316 µM [rising, full curve]"
Cc1ccccc1CSCC(=O)NC(=O)NCc1ccco1,AC50,[1],"22.4 µM [falling, single point]"
Cc1ccnc(N2C(=O)c3ccccc3C2O)c1 (configuration not stated),AC50,[1],"20.6 µM [falling, single point]"
Cc1cc(C)n(-c2ccc(C(=O)NCc3ccc(F)cc3)cc2)n1,AC50,[1],"3.16 µM [rising, partial curve, poor fit]"
O=C(OCc1nc2ccccc2s1)c1cc2ccccc2oc1=O,AC50,[1],"9.2 µM [rising, partial curve]"
CC1(C)CC(=O)C(C(c2ccco2)C2C(=O)CC(C)(C)CC2=O)C(=O)C1,AC50,[1],"7.31 µM [rising, partial curve, poor fit]"
COc1ccc(CN2C(=O)CC(Cc3cc(C)cc(C)c3)C2=O)cc1OC (configuration not stated),AC50,[1],"16.4 µM [rising, partial curve]"
Cc1cccc2sc(NNC(=O)C3=COCCO3)nc12,AC50,[1],"3.55 µM [rising, single point]"
O=C(NC(=S)Nc1cccc(NC(=S)NC(=O)c2ccco2)n1)c1ccco1,AC50,[2],"4.47 µM [falling, partial curve, poor fit]"
CC1CN(S(=O)(=O)c2cccc(C(=O)OCC(=O)c3cccs3)c2)CC(C)O1 (configuration not stated),AC50,[1],"29.1 µM [rising, single point]"
Oc1cccc(/C=C/c2ccc3cccc(O)c3n2)c1,AC50,[1],"35.5 µM [falling, single point]"
same,AC50,[2],"25.1 µM [falling, single point]"
COc1ccc(CC(=O)Nc2cc(S(=O)(=O)N3CCOCC3)ccc2N2CCOCC2)cc1,AC50,[1],"6.31 µM [rising, single point]"
CC1=CC(C)(C)Nc2ccc(OC(=O)CN3C(=O)CCC3=O)cc21,AC50,[1],"10.3 µM [falling, partial curve, poor fit]"
N=C1C(c2ccccc2)=C(O)C2CCc3ccccc3N12 (configuration not stated),AC50,[1],"12.6 µM [falling, single point]"
O=C(NCCc1ccccc1)c1nccc2ccccc12,AC50,[1],"13 µM [falling, partial curve]"
Cc1ccc(S(=O)(=O)N(CC(=O)NCc2ccccn2)c2ccc(Cl)cc2)cc1,AC50,[1],"35.5 µM [falling, single point]"
C/C(CCc1ccc2c(c1)OCO2)=N\NC(=O)c1ccc(C)cc1C,AC50,[1],"0.794 µM [falling, partial curve, poor fit]"
CC(C)(C)c1cc(-c2csc(Nc3ccccc3)[n+]2Cc2ccc(C(=O)O)cc2)cc(C(C)(C)C)c1O,AC50,[1],"22.4 µM [falling, single point]"
COc1ccc(CCNC(=O)CSc2nnc(Cc3cccn3C)n2C)cc1OC,AC50,[1],"20 µM [rising, partial curve, poor fit]"
CCc1nc(SCC(=O)NCCc2ccc(OC)c(OC)c2)c2c(=O)n(C)c(=O)n(C)c2n1,AC50,[1],"20.6 µM [rising, single point]"
Cc1ccc(NC(=O)COC(=O)Cc2c[nH]c3ccccc23)cc1C,AC50,[1],"4.61 µM [falling, full curve]"
COc1cc(C(=O)N/N=C/c2ccc(OC(=O)c3ccccc3Cl)c(OC)c2)ccc1O,AC50,[1],"22.4 µM [falling, partial curve, poor fit]"
CN(C)C(=O)c1nnsc1Sc1ccc(Cl)cc1,AC50,[1],"35.5 µM [rising, single point]"
O=C(c1ccc2c(c1)OCO2)N1CCN=C1SCc1ccccc1,AC50,[1],"7.31 µM [rising, single point]"
CCOC(=O)C1C(=O)C=C(c2cccc(NS(C)(=O)=O)c2)CC1c1ccco1 (configuration not stated),AC50,[1],"20.6 µM [falling, single point]"
COc1cc(C(=O)NC(=S)Nc2ccc(Cc3ccncc3)cc2)cc(OC)c1OC,AC50,[1],"35.5 µM [falling, single point]"
Cc1ccc(C)n1-c1ccc(C(=O)Nc2ccccc2)cc1,AC50,[1],"16.4 µM [falling, single point]"
CCN(c1cccc(C)c1)S(=O)(=O)c1c(C)[nH]c(=O)[nH]c1=O,AC50,[1],"2.31 µM [rising, full curve, poor fit]"
Cc1ccc(-n2c(C)nn(-c3ncc(C(F)(F)F)cc3Cl)c2=O)cc1,AC50,[1],"14.6 µM [rising, single point]"
CCC1CCCCN1C(=O)Cn1nc([N+](=O)[O-])c(Cl)c1C (configuration not stated),AC50,[1],"0.112 µM [falling, full curve, poor fit]"
COc1ccc(NC(=O)C2=Cc3ccccc3OC2)cc1,AC50,[1],"8.91 µM [falling, partial curve]"
Cc1ccc(C)c2[nH]c(=O)c(CN(Cc3cccnc3)C(=S)NCc3ccco3)cc12,AC50,[1],"1.12 µM [rising, single point]"
CCC(NC(=O)c1ccccc1NC(=O)c1ccccc1)C(=O)NNC(=O)CSc1nc2ccccc2o1 (configuration not stated),AC50,[1],"29.1 µM [falling, single point]"
CN1CCN(c2ccc(S(=O)(=O)N3CCCCC3)cc2NC(=O)/C=C/c2ccc(Cl)c([N+](=O)[O-])c2)CC1,AC50,[1],"10.3 µM [falling, partial curve, poor fit]"
O=C1Nc2ccccc2N(O)N1c1ccc(Cl)c(Cl)c1,AC50,[1],"12.6 µM [falling, single point]"
Cc1cc(NC(=O)c2ccc(Cl)cc2Cl)no1,AC50,[1],"35.5 µM [rising, single point]"
Cc1cccc(N2CCN(c3ccc(NC(=O)c4ccccc4)cc3C(=O)O)CC2C)c1 (configuration not stated),AC50,[1],"0.562 µM [rising, full curve, poor fit]"
COc1ccc(-c2noc(CSc3nc(N)cc(=O)[nH]3)n2)cc1,AC50,[1],"31.6 µM [rising, single point]"
same,AC50,[2],"15.8 µM [falling, single point]"
CN(Cc1nc(-c2ccncc2)no1)S(=O)(=O)c1ccccc1,AC50,[1],"14.6 µM [rising, partial curve]"
COc1ccc(/C(N)=N/OC(=O)C2CCC(=O)N2S(=O)(=O)c2ccc(C)cc2)cc1OC (configuration not stated),AC50,[1],"7.31 µM [rising, partial curve]"
Cc1[nH]c2ccccc2c1C(=O)C(=O)Nc1ccc2c(c1)OCO2,AC50,[1],"5.62 µM [rising, full curve, poor fit]"
N#Cc1ccc(NC(=O)N2CCC(c3nc4c(nnn4Cc4cccc(Cl)c4)c(=O)[nH]3)CC2)cc1,AC50,[1],"20 µM [falling, single point]"
COc1ccccc1/C=C1\SC(=O)N(CCC(=O)NCCCn2ccnc2)C1=O,AC50,[1],"11.2 µM [falling, partial curve, poor fit]"
CCCc1cc(=O)[nH]c(SCC(=O)Nc2cc(S(=O)(=O)N3CCOCC3)ccc2N(CC)CC)n1,AC50,[1],"0.461 µM [rising, partial curve]"
COc1cccc(-c2ncc3ccccc3c2COC(=O)c2ccc(C(F)(F)F)cc2)c1,AC50,[1],"13 µM [falling, partial curve]"
COc1ccc(C(=O)NCc2ccc(-c3nc4ccccc4s3)cc2)cc1OC,AC50,[1],"29.1 µM [rising, single point]"
Cc1nc2ccccc2c2c1CC(C)S2 (configuration not stated),AC50,[1],"1.58 µM [rising, full curve, poor fit]"
O=c1[nH]c(-c2cccnc2)nc2sc(-c3ccccc3)cc12,AC50,[1],"0.282 µM [falling, full curve]"
CCS(=O)(=O)N1CCCC(C(=O)NCc2cccc(OC)c2)C1 (configuration not stated),AC50,[1],"7.31 µM [rising, partial curve, poor fit]"
COc1ccc(CN(C)Cc2c(O)ccc3cc(Br)ccc23)cc1OC,AC50,[1],"8.91 µM [falling, partial curve, poor fit]"
Cc1ccc(S(=O)(=O)Nc2cccc3cccnc23)c([N+](=O)[O-])c1,AC50,[1],"5.62 µM [rising, single point]"
same,AC50,[2],"3.55 µM [falling, single point]"
Cc1ccc(S(=O)(=O)NCC(=O)OCC(=O)c2ccc(Br)s2)cc1,AC50,[1],"1.84 µM [falling, full curve]"
CCOC(=O)c1cc(-c2ccccc2C)n(CC2CC(c3ccc(OC)cc3)=NO2)n1 (configuration not stated),AC50,[1],"29.1 µM [falling, single point]"
O=C(Nc1nnc(C2=COCCO2)o1)c1cccc(C(F)(F)F)c1,AC50,[1],"35.5 µM [rising, single point]"
O=C(NC(=O)c1ccccc1O)c1ccc2c(c1)CCO2,AC50,[1],"1.26 µM [falling, full curve]"
CCN(c1ccccc1)S(=O)(=O)c1ccc2[nH]cc(C(=O)NC3CCCCC3)c(=O)c2c1,AC50,[1],"35.5 µM [rising, single point]"
N#C/C(=C\c1ccccn1)c1ccccn1,AC50,[1],"22.4 µM [falling, partial curve, poor fit]"
Cc1sc2nc(SCC(=O)NCc3ccco3)n(CCc3ccccc3)c(=O)c2c1C,AC50,[1],"6.51 µM [rising, single point]"
COc1cc(C(=O)Nc2nccs2)cc(OC)c1OC,AC50,[1],"0.13 µM [falling, full curve, poor fit]"
CCOc1ccc(Br)cc1S(=O)(=O)Nc1ccc(NC(=O)c2ccccc2F)cc1,AC50,[1],"29.1 µM [rising, single point]"

# Given bar-delimited: entries from further up
smiles | measurement | setting | value
O=C(OCc1nc2ccccc2s1)c1cc2ccccc2oc1=O | AC50 | [1] | 9.2 µM [rising, partial curve]
CC1(C)CC(=O)C(C(c2ccco2)C2C(=O)CC(C)(C)CC2=O)C(=O)C1 | AC50 | [1] | 7.31 µM [rising, partial curve, poor fit]
Oc1cccc(/C=C/c2ccc3cccc(O)c3n2)c1 | AC50 | [1] | 35.5 µM [falling, single point]

# Given bar-delimited: part of the list above.
smiles | measurement | setting | value
CC1=CC(C)(C)Nc2ccc(OC(=O)CN3C(=O)CCC3=O)cc21 | AC50 | [1] | 10.3 µM [falling, partial curve, poor fit]
Cc1ccc(S(=O)(=O)N(CC(=O)NCc2ccccn2)c2ccc(Cl)cc2)cc1 | AC50 | [1] | 35.5 µM [falling, single point]
COc1ccc(-c2noc(CSc3nc(N)cc(=O)[nH]3)n2)cc1 | AC50 | [2] | 15.8 µM [falling, single point]
